In paper PMC3577899:

Biological target: GST-tagged S61A N-terminal PSI truncation (first 95 amino acids) (Drosophila)
Assay: pull-down; GST-PSI(1-95) baits on glutathione-sepharose beads, with ATP and with or without pre-phosphorylation by human casein kinase II, incubated with 100 uL Kc nuclear extract at 4°C for 3 hrs; washes 20 mM Tris-HCl pH 8.0, 200 mM NaCl, 0.02% NP-40; glutathione eluates analysed by SDS-PAGE, silver staining and mass spectrometry; only the target purified

binding: binds
B1: Recombination Repair Protein 1 (Rrp1) (protein, UniProt P27864 1-679)
chain: MPRVKAVKKQAEALASEPTDPTPNANGNGVDENADSAAEELKVPAKGKPRARKATKTAVSAENSEEVEPQKAPTAAARGKKKQPKDTDENGQMEVVAKPKGRAKKATAEAEPEPKVDLPAGKATKPRAKKEPTPAPDEVTSSPPKGRAKAEKPTNAQAKGRKRKELPAEANGGAEEAAEPPKQRARKEAVPTLKEQAEPGTISKEKVQKAETAAKRARGTKRLADSEIAAALDEPEVDEVPPKAASKRAKKGKMVEPSPETVGDFQSVQEEVESPPKTAAAPKKRAKKTTNGETAVELEPKTKAKPTKQRAKKEGKEPAPGKKQKKSADKENGVVEEEAKPSTETKPAKGRKKAPVKAEDVEDIEEAAEESKPARGRKKAAAKAEEPDVDEESGSKTTKKAKKAETKTTVTLDKDAFALPADKEFNLKICSWNVAGLRAWLKKDGLQLIDLEEPDIFCLQETKCANDQLPEEVTRLPGYHPYWLCMPGGYAGVAIYSKIMPIHVEYGIGNEEFDDVGRMITAEYEKFYLINVYVPNSGRKLVNLEPRMRWEKLFQAYVKKLDALKPVVICGDMNVSHMPIDLENPKNNTKNAGFTQEERDKMTELLGLGFVDTFRHLYPDRKGAYTFWTYMANARARNVGWRLDYCLVSERFVPKVVEHEIRSQCLGSDHCPITIFFNI

Results are given in words; binding and its absence hold for the method and conditions named. Binding seen in cells or lysates may run through a third protein. Binding can be weak; no strength is given.
